Results are given in words; binding and its absence hold for the method and conditions named. Some entries that bind do so weakly or less than the wild type.
Experiments:
Assay in all cases: native MS; GLP-G9a heterodimers co-expressed in E. coli and purified together; 5 µM in 150 mM ammonium acetate pH 7.5, 0.5 mM DTT; both purified
[1] = target: G9a (aa residues 601-1193), ankyrin repeats and methyltransferase domain, A1077S (human) (UniProt Q96KQ7)
[2] = target: G9a (aa residues 601-1193), ankyrin repeats and methyltransferase domain, Del 1076-9 (human) (UniProt Q96KQ7)
[3] = target: G9a (aa residues 601-1193), ankyrin repeats and methyltransferase domain, wild type (human) (UniProt Q96KQ7)

Chains of the proteins cited; added tags and fusions are not shown. Lines headed by an entry give the natural chain unless they say otherwise; changes in a name come on top. A line that says so, or that is headed by a name, gives the form on record, which may keep a tag or linker. Residues count along the entry.
G9a (aa residues 601-1193), ankyrin repeats and methyltransferase domain, wild type (Q96KQ7, residues 601-1193): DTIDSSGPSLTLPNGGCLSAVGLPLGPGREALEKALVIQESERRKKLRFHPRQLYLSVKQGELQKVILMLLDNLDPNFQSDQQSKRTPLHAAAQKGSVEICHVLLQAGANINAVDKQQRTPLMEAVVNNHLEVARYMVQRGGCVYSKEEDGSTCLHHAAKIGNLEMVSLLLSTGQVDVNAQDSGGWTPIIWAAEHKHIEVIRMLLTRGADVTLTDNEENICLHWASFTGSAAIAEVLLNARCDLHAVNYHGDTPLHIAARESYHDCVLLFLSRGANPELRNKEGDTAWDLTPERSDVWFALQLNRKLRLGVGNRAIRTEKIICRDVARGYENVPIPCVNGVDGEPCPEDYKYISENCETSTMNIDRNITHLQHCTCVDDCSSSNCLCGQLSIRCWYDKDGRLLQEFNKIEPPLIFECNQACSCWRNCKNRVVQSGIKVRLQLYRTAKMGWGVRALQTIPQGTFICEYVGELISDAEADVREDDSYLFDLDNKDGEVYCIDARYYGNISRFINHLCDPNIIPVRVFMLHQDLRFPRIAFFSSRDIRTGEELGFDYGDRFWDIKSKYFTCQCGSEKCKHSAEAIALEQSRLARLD
G9a (aa residues 601-1193), ankyrin repeats and methyltransferase domain, A1077S (Q96KQ7, form named): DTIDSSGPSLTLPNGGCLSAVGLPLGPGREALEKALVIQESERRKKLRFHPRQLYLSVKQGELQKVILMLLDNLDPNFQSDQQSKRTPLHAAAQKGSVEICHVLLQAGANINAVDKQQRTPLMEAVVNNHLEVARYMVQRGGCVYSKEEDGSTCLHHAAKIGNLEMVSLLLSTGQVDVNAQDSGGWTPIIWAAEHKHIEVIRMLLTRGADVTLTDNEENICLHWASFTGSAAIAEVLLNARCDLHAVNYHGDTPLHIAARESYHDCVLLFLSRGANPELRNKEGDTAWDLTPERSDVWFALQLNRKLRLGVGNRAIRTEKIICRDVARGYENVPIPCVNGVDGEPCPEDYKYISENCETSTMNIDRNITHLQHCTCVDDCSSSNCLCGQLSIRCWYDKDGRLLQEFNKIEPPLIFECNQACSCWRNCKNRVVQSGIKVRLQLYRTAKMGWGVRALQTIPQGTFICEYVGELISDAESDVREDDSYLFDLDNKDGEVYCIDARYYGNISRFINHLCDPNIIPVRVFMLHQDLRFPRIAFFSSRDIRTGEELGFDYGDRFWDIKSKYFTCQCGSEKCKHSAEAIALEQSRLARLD
G9a (aa residues 601-1193), ankyrin repeats and methyltransferase domain, Del 1076-9 (Q96KQ7, form named): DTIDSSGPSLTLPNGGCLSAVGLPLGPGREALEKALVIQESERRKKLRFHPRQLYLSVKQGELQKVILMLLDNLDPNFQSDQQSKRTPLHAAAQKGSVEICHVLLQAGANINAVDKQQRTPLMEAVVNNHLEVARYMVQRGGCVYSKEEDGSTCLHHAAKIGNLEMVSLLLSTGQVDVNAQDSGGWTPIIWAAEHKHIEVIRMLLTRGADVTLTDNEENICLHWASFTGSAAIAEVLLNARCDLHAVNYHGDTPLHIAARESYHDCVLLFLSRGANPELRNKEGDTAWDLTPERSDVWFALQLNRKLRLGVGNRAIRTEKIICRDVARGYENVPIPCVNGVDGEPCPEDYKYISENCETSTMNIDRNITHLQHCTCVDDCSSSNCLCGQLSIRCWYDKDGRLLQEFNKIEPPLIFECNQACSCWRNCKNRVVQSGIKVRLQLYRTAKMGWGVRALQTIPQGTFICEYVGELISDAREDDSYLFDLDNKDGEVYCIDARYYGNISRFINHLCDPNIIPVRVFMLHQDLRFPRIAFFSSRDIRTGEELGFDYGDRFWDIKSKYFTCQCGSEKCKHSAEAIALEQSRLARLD
UniProt Q9H9B1, residues 710-1285: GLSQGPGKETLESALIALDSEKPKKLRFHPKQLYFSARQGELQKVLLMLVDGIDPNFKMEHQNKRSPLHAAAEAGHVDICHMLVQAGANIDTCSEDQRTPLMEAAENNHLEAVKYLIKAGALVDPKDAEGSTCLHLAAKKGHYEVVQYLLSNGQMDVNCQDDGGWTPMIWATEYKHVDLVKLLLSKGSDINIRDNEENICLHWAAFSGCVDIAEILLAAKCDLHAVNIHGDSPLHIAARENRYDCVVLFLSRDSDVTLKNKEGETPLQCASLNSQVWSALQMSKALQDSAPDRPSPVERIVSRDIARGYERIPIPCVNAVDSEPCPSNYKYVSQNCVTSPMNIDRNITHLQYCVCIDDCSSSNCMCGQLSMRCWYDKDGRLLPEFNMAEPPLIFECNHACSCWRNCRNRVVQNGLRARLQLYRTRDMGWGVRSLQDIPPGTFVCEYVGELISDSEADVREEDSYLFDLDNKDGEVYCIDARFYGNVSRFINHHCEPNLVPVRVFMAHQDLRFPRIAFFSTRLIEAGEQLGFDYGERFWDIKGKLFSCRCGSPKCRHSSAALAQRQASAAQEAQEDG

binding [1]: binds
binding [2]: binds
binding [3]: binds
Substance: GLP (aa residues 710-1285), ankyrin repeats and methyltransferase domain (from UniProt Q9H9B1-1 710-1285) (domain or fragment)

From article PMC13462943
